These are yes or no findings as the source states them, for the method shown. In cells and extracts the contact can be indirect. For some assays here: Binding can be weak; no strength is given. Sequences can lack the tags named with a protein.
T1: C-terminally HA-tagged MEC-6 (C. elegans) (UniProt O01811)
T1 sequence: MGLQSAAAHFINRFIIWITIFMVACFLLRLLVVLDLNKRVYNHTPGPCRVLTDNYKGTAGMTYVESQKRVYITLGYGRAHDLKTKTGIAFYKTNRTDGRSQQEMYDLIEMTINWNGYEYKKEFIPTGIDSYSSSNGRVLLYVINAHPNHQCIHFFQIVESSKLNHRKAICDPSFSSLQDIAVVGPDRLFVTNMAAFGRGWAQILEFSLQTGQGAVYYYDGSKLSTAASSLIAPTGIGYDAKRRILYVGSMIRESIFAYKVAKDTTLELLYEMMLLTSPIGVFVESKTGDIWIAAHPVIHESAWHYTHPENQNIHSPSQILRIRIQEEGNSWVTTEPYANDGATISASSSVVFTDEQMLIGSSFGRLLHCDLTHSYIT


Legend:
[1] = target: T1, C-terminally HA-tagged MEC-6 (C. elegans); assay: co-IP
[2] = target: N-terminally EGFP-tagged POML-1 (C. elegans) (UniProt Q21427); assay: co-IP

| binding [1] | binding [2] | Molecule |
| --- | --- | --- |
| no binding |  | β-integrin (Xenopus oocyte membrane protein) |
|  | binds | C-terminally HA-tagged MEC-6 (protein, UniProt O01811 1-377) MGLQSAAAHFINRFIIWITIFMVACFLLRLLVVLDLNKRVYNHTPGPCRVLTDNYKGTAGMTYVESQKRVYITLGYGRAHDLKTKTGIAFYKTNRTDGRSQQEMYDLIEMTINWNGYEYKKEFIPTGIDSYSSSNGRVLLYVINAHPNHQCIHFFQIVESSKLNHRKAICDPSFSSLQDIAVVGPDRLFVTNMAAFGRGWAQILEFSLQTGQGAVYYYDGSKLSTAASSLIAPTGIGYDAKRRILYVGSMIRESIFAYKVAKDTTLELLYEMMLLTSPIGVFVESKTGDIWIAAHPVIHESAWHYTHPENQNIHSPSQILRIRIQEEGNSWVTTEPYANDGATISASSSVVFTDEQMLIGSSFGRLLHCDLTHSYIT |

Reference: article doi:10.1101/040337
